# Experimental data reported in the supplement of paper PMC8728848.
# Some of the results follow.
# B1: Flo11 (Saccharomyces cerevisiae), P08640 (protein)
# chain: MQRPFLLAYLVLSLLFNSALGFPTALVPRGSSEGTSCNSIVNGCPNLDFNWHMDQQNIMQYTLDVTSVSWVQDNTYQITIHVKGKENIDLKYLWSLKIIGVTGPKGTVQLYGYNENTYLIDNPTDFTATFEVYATQDVNSCQVWMPNFQIQFEYLQGSAAQYASSWQWGTTSFDLSTGCNNYDNQGHSQTDFPGFYWNIDCDNNCGGTKSSTTTSSTSESSTTTSSTSESSTTTSSTSESSTTTSSTSESSTSSSTTAPATPTTTSCTKEKPTPPTTTSCTKEKPTPPHHDTTPCTKKKTTTSKTCTKKTTTPVPTPSSSTTESSSAPVPTPSSSTTESSSAPVTSSTTESSSAPVPTPSSSTTESSSAPVTSSTTESSSAPVTSSTTESSSAPVPTPSSSTTESSSAPVTSSTTESSSAPVTSSTTESSSAPVTSSTTESSSAPVTSSTTESSSAPVPTPSSSTTESSSAPVTSSTTESSSAPVPTPSSSTTESSSAPVTSSTTESSSAPVPTPSSSTTESSSAPAPTPSSSTTESSSAPVTSSTTESSSAPVPTPSSSTTESSSTPVTSSTTESSSAPVPTPSSSTTESSSAPVPTPSSSTTESSSAPAPTPSSSTTESSSAPVTSSTTESSSAPVPTPSSSTTESSSAPVPTPSSSTTESSSAPVPTPSSSTTESSSAPVTSSTTESSSAPVTSSTTESSSAPVPTPSSSTTESSSAPVPTPSSSTTESSSAPVPTPSSSTTESSSAPVTSSTTESSSAPVPTPSSSTTESSSAPVPTPSSSTTESSSAPVPTPSSSTTESSVAPVPTPSSSSNITSSAPSSTPFSSSTESSSVPVPTPSSSTTESSSAPVSSSTTESSVAPVPTPSSSSNITSSAPSSIPFSSTTESFSTGTTVTPSSSKYPGSQTETSVSSTTETTIVPTKTTTSVTTPSTTTITTTVCSTGTNSAGETTSGCSPKTVTTTVPTTTTTSVTTSSTTTITTTVCSTGTNSAGETTSGCSPKTITTTVPCSTSPSETASESTTTSPTTPVTTVVSTTVVTTEYSTSTKPGGEITTTFVTKNIPTTYLTTIAPTPSVTTVTNFTPTTITTTVCSTGTNSAGETTSGCSPKTVTTTVPCSTGTGEYTTEATTLVTTAVTTTVVTTESSTGTNSAGKTTTGYTTKSVPTTYVTTLAPSAPVTPATNAVPTTITTTECSAATNAAGETTSVCSAKTIVSSASAGENTAPSATTPVTTAIPTTVITTESSVGTNSAGETTTGYTTKSIPTTYITTLIPGSNGAKNYETVATATNPISIKTTSQLATTASASSVAPVVTSPSLTGPLQSASGSAVATYSVPSISSTYQGAANIKVLGNFMWLLLALPVVF
# Experiments:
# Test in all cases: glycan array binding signal (z-score within array); higher = stronger binding
# Conditions in all cases: glycan notation: IUPAC condensed, linker removed
# [1] = biological target: Neu5Ac(a2-6)Gal(b1-4)GlcNAc(b1-2)Man(a1-3)[GlcNAc(b1-2)Man(a1-6)]Man(b1-4)GlcNAc(b1-4)GlcNAc
# In short: (§1)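 From the Consortium for Functional Glycomics database, 3228 arrays were curated, keeping only those whose protein sequence was available. Binding is given as a within-array Z-score averaged across arrays sharing a protein sequence and across linkers. Negative Z-scores can be read as non-binding.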
# [2] = biological target: Neu5Ac(a2-6)Gal(b1-4)GlcNAc(b1-2)Man(a1-3)[GlcNAc(b1-2)Man(b1-4)GlcNAc(b1-2)Man(a1-6)]Man(b1-4)GlcNAc(b1-4)GlcNAc
# In short: as §1
# [3] = biological target: Neu5Ac(a2-6)Gal(b1-4)GlcNAc(b1-2)Man(a1-3)[Man(a1-6)]Man(b1-4)GlcNAc(b1-4)GlcNAc
# In short: as §1
# [4] = biological target: Neu5Ac(a2-6)Gal(b1-4)GlcNAc(b1-2)Man(a1-3)[Neu5Ac(a2-6)Gal(b1-4)GlcNAc(b1-2)Man(a1-6)]Man(b1-4)GlcNAc(b1-4)GlcNAc
# In short: as §1
# [5] = biological target: Neu5Ac(a2-6)Gal(b1-4)GlcNAc(b1-2)Man(a1-6)Man(b1-4)GlcNAc(b1-4)GlcNAc
# In short: as §1
# [6] = biological target: Neu5Ac(a2-6)Gal(b1-4)GlcNAc(b1-2)Man(a1-6)[Gal(b1-4)GlcNAc(b1-2)Man(a1-3)]Man(b1-4)GlcNAc(b1-4)GlcNAc
# In short: as §1
# [7] = biological target: Neu5Ac(a2-6)Gal(b1-4)GlcNAc(b1-2)Man(a1-6)[GlcNAc(b1-2)Man(a1-3)]Man(b1-4)GlcNAc(b1-4)GlcNAc
# In short: as §1
# [8] = biological target: Neu5Ac(a2-6)Gal(b1-4)GlcNAc(b1-2)Man(a1-6)[Man(a1-3)]Man(b1-4)GlcNAc(b1-4)GlcNAc
# In short: as §1
# [9] = biological target: Neu5Ac(a2-6)Gal(b1-4)GlcNAc(b1-3)Gal(b1-3)GlcNAc
# In short: as §1
# [10] = biological target: Neu5Ac(a2-6)Gal(b1-4)GlcNAc(b1-3)Gal(b1-4)GlcNAc
# In short: as §1
# [11] = biological target: Neu5Ac(a2-6)Gal(b1-4)GlcNAc(b1-3)Gal(b1-4)GlcNAc(b1-3)Gal(b1-4)GlcNAc
# In short: as §1
# [12] = biological target: Neu5Ac(a2-6)Gal(b1-4)GlcNAc(b1-3)Gal(b1-4)[Fuc(a1-3)]GlcNAc(b1-3)Gal(b1-4)[Fuc(a1-3)]GlcNAc
# In short: as §1
# [13] = biological target: Neu5Ac(a2-6)Gal(b1-4)GlcNAc(b1-3)GalNAc
# In short: as §1
# [14] = biological target: Neu5Ac(a2-6)Gal(b1-4)GlcNAc6S
# In short: as §1
# [15] = biological target: Neu5Ac(a2-6)GalNAc
# In short: as §1
# [16] = biological target: Neu5Ac(a2-6)GalNAc(b1-4)GlcNAc
# In short: as §1
# [17] = biological target: Neu5Ac(a2-6)GlcNAc(b1-4)GlcNAc
# In short: as §1
# [18] = biological target: Neu5Ac(a2-6)GlcNAc(b1-4)GlcNAc(b1-4)GlcNAc
# In short: as §1
# [19] = biological target: Neu5Ac(a2-8)Neu5Ac
# In short: as §1
# [20] = biological target: Neu5Ac(a2-8)Neu5Ac(a2-3)Gal(b1-3)GalNAc(b1-4)[Neu5Ac(a2-8)Neu5Ac(a2-3)]Gal(b1-4)Glc
# In short: as §1
# [21] = biological target: Neu5Ac(a2-8)Neu5Ac(a2-3)Gal(b1-4)Glc
# In short: as §1
# [22] = biological target: Neu5Ac(a2-8)Neu5Ac(a2-3)[Gal(b1-3)GalNAc(b1-4)]Gal(b1-4)Glc
# In short: as §1
# [23] = biological target: Neu5Ac(a2-8)Neu5Ac(a2-3)[GalNAc(b1-4)]Gal(b1-4)Glc
# In short: as §1
# [24] = biological target: Neu5Ac(a2-8)Neu5Ac(a2-8)Neu5Ac
# In short: as §1
# [25] = biological target: Neu5Ac(a2-8)Neu5Ac(a2-8)Neu5Ac(a2-3)Gal(b1-4)Glc
# In short: as §1
# [26] = biological target: Neu5Ac(a2-8)Neu5Ac(a2-8)Neu5Ac(a2-3)[GalNAc(b1-4)]Gal(b1-4)Glc
# In short: as §1
# [27] = biological target: Neu5Ac(a2-8)Neu5Ac(a2-8)Neu5Ac(a2-8)Neu5Ac(a2-3)[GalNAc(b1-4)]Gal(b1-4)Glc
# In short: as §1
# [28] = biological target: Neu5Ac(b2-6)Gal(b1-4)GlcNAc
# In short: as §1
# [29] = biological target: Neu5Ac(b2-6)GalNAc
# In short: as §1
# [30] = biological target: Neu5Ac9Ac(a2-3)Gal(b1-3)GlcNAc
# In short: as §1
# [31] = biological target: Neu5Ac9Ac(a2-3)Gal(b1-4)GlcNAc
# In short: as §1
# [32] = biological target: Neu5Ac9Ac(a2-6)Gal(b1-4)GlcNAc
# In short: as §1
# [33] = biological target: Neu5Gc(a2-3)Gal(b1-3)GlcNAc
# In short: as §1
# [34] = biological target: Neu5Gc(a2-3)Gal(b1-3)[Fuc(a1-4)]GlcNAc
# In short: as §1
# [35] = biological target: Neu5Gc(a2-3)Gal(b1-4)Glc
# In short: as §1
# [36] = biological target: Neu5Gc(a2-3)Gal(b1-4)GlcNAc
# In short: as §1
# [37] = biological target: Neu5Gc(a2-3)Gal(b1-4)[Fuc(a1-3)]GlcNAc
# In short: as §1
# [38] = biological target: Neu5Gc(a2-6)Gal(b1-4)GlcNAc
# In short: as §1
# [39] = biological target: Neu5Gc(a2-6)GalNAc
# In short: as §1
# [40] = biological target: Neu5Gc(b2-6)Gal(b1-4)GlcNAc
# In short: as §1
binder,measurement,setting,value
B1,glycan array binding signal (z-score),[1],-0.888
same,glycan array binding signal (z-score),[2],-0.074
same,glycan array binding signal (z-score),[3],1.68
same,glycan array binding signal (z-score),[4],-0.137
same,glycan array binding signal (z-score),[5],-0.731
same,glycan array binding signal (z-score),[6],-0.063
same,glycan array binding signal (z-score),[7],0.103
same,glycan array binding signal (z-score),[8],-1.03
same,glycan array binding signal (z-score),[9],-0.783
same,glycan array binding signal (z-score),[10],0.409
same,glycan array binding signal (z-score),[11],-0.252
same,glycan array binding signal (z-score),[12],0.359
same,glycan array binding signal (z-score),[13],-0.744
same,glycan array binding signal (z-score),[14],-0.192
same,glycan array binding signal (z-score),[15],-0.637
same,glycan array binding signal (z-score),[16],-0.788
same,glycan array binding signal (z-score),[17],0.085
same,glycan array binding signal (z-score),[18],1.91
same,glycan array binding signal (z-score),[19],0.369
same,glycan array binding signal (z-score),[20],0.341
same,glycan array binding signal (z-score),[21],-0.758
same,glycan array binding signal (z-score),[22],1.55
same,glycan array binding signal (z-score),[23],-0.55
same,glycan array binding signal (z-score),[24],-1.34
same,glycan array binding signal (z-score),[25],-1.22
same,glycan array binding signal (z-score),[26],-0.894
same,glycan array binding signal (z-score),[27],0.148
same,glycan array binding signal (z-score),[28],-0.789
same,glycan array binding signal (z-score),[29],-1.02
same,glycan array binding signal (z-score),[30],-1.22
same,glycan array binding signal (z-score),[31],-0.901
same,glycan array binding signal (z-score),[32],-0.778
same,glycan array binding signal (z-score),[33],-0.289
same,glycan array binding signal (z-score),[34],-1.28
same,glycan array binding signal (z-score),[35],-0.51
same,glycan array binding signal (z-score),[36],-1.32
same,glycan array binding signal (z-score),[37],-1.06
same,glycan array binding signal (z-score),[38],-0.534
same,glycan array binding signal (z-score),[39],1.01
same,glycan array binding signal (z-score),[40],0.414

# Already shown: an excerpt of the list.
binder,measurement,setting,value
B1,glycan array binding signal (z-score),[30],-1.22
same,glycan array binding signal (z-score),[31],-0.901
same,glycan array binding signal (z-score),[32],-0.778
same,glycan array binding signal (z-score),[33],-0.289
same,glycan array binding signal (z-score),[34],-1.28
same,glycan array binding signal (z-score),[35],-0.51
same,glycan array binding signal (z-score),[36],-1.32
same,glycan array binding signal (z-score),[37],-1.06
same,glycan array binding signal (z-score),[38],-0.534
same,glycan array binding signal (z-score),[39],1.01
